PubChem BioAssay AID504774 | Drosophila RNAi Screening Center, 2011

- Aim: 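Genes required for cells to withstand methyl methanesulphonate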 (primary screen)
- Cells: Drosophila Kc167 cells
- Reagents: long dsRNA against Drosophila genes, about 0.25 µg dsRNA per well
- Time to read-out: about 6 days: 3 days knock-down, then 3 days with or without MMS
- Challenge: methyl methanesulphonate 0.004% (w/v) for 3 days after knock-down
- Read-out: 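Viability in wells given MMS, read as ATP luminescence, normalised by quantiles plate by plate and averaged across replicates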
- Scale: mean viability with MMS: higher = more surviving cells after MMS
In all, the deposit lists about 23,000 reagents; this is a random part of those with a known target gene and a result. 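Values are quantile-normalised luminescence on an arbitrary scale; higher means more cells surviving MMS.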 Reagents against one gene are numbered here. Names joined by + are all predicted targets of the reagent. Not all columns of the deposit are shown.

{"Gene": "Drsl5", "dsRNA no.": 1, "mean viability with MMS": 3.60e6}
{"Gene": "CG34178 + CG34177", "dsRNA no.": 1, "mean viability with MMS": 3.54e6}
{"Gene": "CG11360", "dsRNA no.": 1, "mean viability with MMS": 3.69e6}
{"Gene": "CG11360", "dsRNA no.": 2, "mean viability with MMS": 3.69e6}
{"Gene": "CG13198", "dsRNA no.": 1, "mean viability with MMS": 3.49e6}
{"Gene": "CG9121", "dsRNA no.": 1, "mean viability with MMS": 3.49e6}
{"Gene": "Osi10b", "dsRNA no.": 1, "mean viability with MMS": 3.48e6}
{"Gene": "CG6738", "dsRNA no.": 1, "mean viability with MMS": 3.64e6}
{"Gene": "PolG1", "dsRNA no.": 1, "mean viability with MMS": 3.77e6}
{"Gene": "Ptp52F", "dsRNA no.": 1, "mean viability with MMS": 3.50e6}
{"Gene": "Ca-beta", "dsRNA no.": 1, "mean viability with MMS": 3.48e6}
{"Gene": "Ca-beta", "dsRNA no.": 2, "mean viability with MMS": 3.64e6}
{"Gene": "Ca-beta", "dsRNA no.": 3, "mean viability with MMS": 3.73e6}
{"Gene": "Ca-beta", "dsRNA no.": 4, "mean viability with MMS": 3.57e6}

Part of the list above, reformatted:
CG34178 + CG34177 → mean viability with MMS: 3.54e6
CG11360 #1 → mean viability with MMS: 3.69e6
